Measurements reported in PubChem BioAssay AID1224830 (NIAID, 2016)
Here is one part, drawn at random, of about 18,000 reagents tested. About 2,900 of all reagents (16%) were called active. 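Calls are made per well; low scores hint the gene aids the LPS response, high scores that it dampens it.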 Repeated entries: four replicate wells of each siRNA pool. No sequences are given here.

- Purpose: 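Regulators of TLR4 signalling towards TNF-alpha in macrophage-like cells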 (primary screen)
- Cell system: human THP-1 monocytic leukaemia cells, TNF dual-luciferase reporter clone, PMA-differentiated to macrophage-like cells
- Reagents: siRNA pool against human genes, 50 nM
- Timing: LPS for 4 h, given about 3 days after siRNA transfection
- Treatment: bacterial LPS (TLR4 ligand), 10 ng/ml
- Measured: 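Ratio of firefly to renilla light, scaled to the plate median and expressed as a robust z-score per replicate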
- Reading the numbers: TNF reporter robust z-score: higher = stronger TNF reporter response to LPS
- Active means: 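Each well counts as active if its z-score is over 2.8 or under -1.5; controls are left without a call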

| gene knocked down | TNF reporter robust z-score | call |
| --- | --- | --- |
| NT5C3B (5'-nucleotidase, cytosolic IIIB) | 0.46 | inactive |
| NT5C3B (5'-nucleotidase, cytosolic IIIB) | 1.31 | inactive |
| NT5C3B (5'-nucleotidase, cytosolic IIIB) | 2.29 | inactive |
| NT5C3B (5'-nucleotidase, cytosolic IIIB) | 5.33 | active |
| CORO2B (coronin 2B) | 1.25 | inactive |
| CORO2B (coronin 2B) | 1.36 | inactive |
| CORO2B (coronin 2B) | 1.87 | inactive |
| CORO2B (coronin 2B) | 1.53 | inactive |
| HSPB7 (heat shock protein family B (small) member 7) | 0.13 | inactive |
| HSPB7 (heat shock protein family B (small) member 7) | 0.98 | inactive |
| HSPB7 (heat shock protein family B (small) member 7) | 0.7 | inactive |
| HSPB7 (heat shock protein family B (small) member 7) | 0.95 | inactive |
| DDX41 (DEAD-box helicase 41) | -1.32 | inactive |
| DDX41 (DEAD-box helicase 41) | -1.36 | inactive |
| DDX41 (DEAD-box helicase 41) | -1.21 | inactive |
| DDX41 (DEAD-box helicase 41) | -0.92 | inactive |
| SLC22A14 | -0.75 | inactive |
| SLC22A14 | 0.03 | inactive |
| SLC22A14 | -0.79 | inactive |
| SLC22A14 | 0.22 | inactive |
| RALGAPA1 (Ral GTPase activating protein catalytic subunit alpha 1) | -0.99 | inactive |
| RALGAPA1 (Ral GTPase activating protein catalytic subunit alpha 1) | -1.1 | inactive |
| RALGAPA1 (Ral GTPase activating protein catalytic subunit alpha 1) | -1.19 | inactive |
| RALGAPA1 (Ral GTPase activating protein catalytic subunit alpha 1) | -0.11 | inactive |
| GPR176 (G protein-coupled receptor 176) | 1.87 | inactive |
| GPR176 (G protein-coupled receptor 176) | 0.66 | inactive |
| GPR176 (G protein-coupled receptor 176) | -0.24 | inactive |
| GPR176 (G protein-coupled receptor 176) | -0.29 | inactive |
| PUM1 (pumilio RNA binding family member 1) | 2.05 | inactive |
| PUM1 (pumilio RNA binding family member 1) | 1.76 | inactive |
| PUM1 (pumilio RNA binding family member 1) | 0.71 | inactive |
| PUM1 (pumilio RNA binding family member 1) | 0.37 | inactive |
| MROH8 (maestro heat like repeat family member 8) | 0.31 | inactive |
| MROH8 (maestro heat like repeat family member 8) | 0.43 | inactive |
| MROH8 (maestro heat like repeat family member 8) | 0.59 | inactive |
| MROH8 (maestro heat like repeat family member 8) | 0.6 | inactive |
| PELI3 (pellino E3 ubiquitin protein ligase family member 3) | 1.79 | inactive |
| PELI3 (pellino E3 ubiquitin protein ligase family member 3) | 0.7 | inactive |
| PELI3 (pellino E3 ubiquitin protein ligase family member 3) | 0.3 | inactive |
| PELI3 (pellino E3 ubiquitin protein ligase family member 3) | -0.33 | inactive |
| PPARG (peroxisome proliferator activated receptor gamma) | 0.74 | inactive |
| PPARG (peroxisome proliferator activated receptor gamma) | 1.39 | inactive |
| PPARG (peroxisome proliferator activated receptor gamma) | 0.93 | inactive |
| PPARG (peroxisome proliferator activated receptor gamma) | 1.41 | inactive |
| CRIP1 (cysteine rich protein 1) | 1.22 | inactive |
| CRIP1 (cysteine rich protein 1) | 2.62 | inactive |
| CRIP1 (cysteine rich protein 1) | 0.08 | inactive |
| CRIP1 (cysteine rich protein 1) | 1.54 | inactive |
| USP13 (ubiquitin specific peptidase 13) | -1.97 | active |
| USP13 (ubiquitin specific peptidase 13) | -1.74 | active |
| USP13 (ubiquitin specific peptidase 13) | -1.93 | active |
| USP13 (ubiquitin specific peptidase 13) | -1 | inactive |
| COPS9 (COP9 signalosome subunit 9) | 1.55 | inactive |
| COPS9 (COP9 signalosome subunit 9) | 2.59 | inactive |
| COPS9 (COP9 signalosome subunit 9) | 2.79 | inactive |
| COPS9 (COP9 signalosome subunit 9) | 2.23 | inactive |
| TTC33 (tetratricopeptide repeat domain 33) | 1.7 | inactive |
| TTC33 (tetratricopeptide repeat domain 33) | 4.46 | active |
| TTC33 (tetratricopeptide repeat domain 33) | 1.63 | inactive |
| TTC33 (tetratricopeptide repeat domain 33) | 3.9 | active |
| PTGER1 (prostaglandin E receptor 1) | 0.93 | inactive |
| PTGER1 (prostaglandin E receptor 1) | -0.09 | inactive |
| PTGER1 (prostaglandin E receptor 1) | 1.95 | inactive |
| PTGER1 (prostaglandin E receptor 1) | 0.48 | inactive |
| ACAP2 (ArfGAP with coiled-coil, ankyrin repeat and PH domains 2) | -0.97 | inactive |
| ACAP2 (ArfGAP with coiled-coil, ankyrin repeat and PH domains 2) | -0.13 | inactive |
| ACAP2 (ArfGAP with coiled-coil, ankyrin repeat and PH domains 2) | -1.13 | inactive |
| ACAP2 (ArfGAP with coiled-coil, ankyrin repeat and PH domains 2) | -0.63 | inactive |
| PSG6 (pregnancy specific beta-1-glycoprotein 6) | -1.67 | active |
| PSG6 (pregnancy specific beta-1-glycoprotein 6) | -0.58 | inactive |
| PSG6 (pregnancy specific beta-1-glycoprotein 6) | -1.04 | inactive |
| PSG6 (pregnancy specific beta-1-glycoprotein 6) | -1.25 | inactive |
| TECTB (tectorin beta) | -1.99 | active |
| TECTB (tectorin beta) | -1.52 | active |
| TECTB (tectorin beta) | 1.38 | inactive |
| TECTB (tectorin beta) | -0.26 | inactive |
| PTTG1 | 0.26 | inactive |
| PTTG1 | 0.42 | inactive |
| PTTG1 | 0.02 | inactive |
| PTTG1 | 1.37 | inactive |
| SLC25A45 | -1.49 | inactive |
| SLC25A45 | -1.28 | inactive |
| SLC25A45 | -1.22 | inactive |
| WDR47 (WD repeat domain 47) | 1.42 | inactive |
| WDR47 (WD repeat domain 47) | 2.1 | inactive |
| WDR47 (WD repeat domain 47) | 1.91 | inactive |
| WDR47 (WD repeat domain 47) | 1.72 | inactive |
| LANCL3 (LanC like family member 3) | 0.22 | inactive |
| LANCL3 (LanC like family member 3) | -0.02 | inactive |
| LANCL3 (LanC like family member 3) | -0.3 | inactive |
| LANCL3 (LanC like family member 3) | 0.89 | inactive |

No new results follow: entries from further up.
| gene knocked down | TNF reporter robust z-score | call |
| --- | --- | --- |
| CORO2B (coronin 2B) | 1.53 | inactive |
| HSPB7 (heat shock protein family B (small) member 7) | 0.13 | inactive |
| HSPB7 (heat shock protein family B (small) member 7) | 0.98 | inactive |
| HSPB7 (heat shock protein family B (small) member 7) | 0.7 | inactive |
| HSPB7 (heat shock protein family B (small) member 7) | 0.95 | inactive |
| DDX41 (DEAD-box helicase 41) | -1.32 | inactive |
| DDX41 (DEAD-box helicase 41) | -1.36 | inactive |
| DDX41 (DEAD-box helicase 41) | -1.21 | inactive |
| DDX41 (DEAD-box helicase 41) | -0.92 | inactive |
| SLC22A14 | -0.75 | inactive |
| SLC22A14 | 0.03 | inactive |
| SLC22A14 | -0.79 | inactive |

The listing continues.
| gene knocked down | TNF reporter robust z-score | call |
| --- | --- | --- |
| RNF150 (ring finger protein 150) | -0.63 | inactive |
| RNF150 (ring finger protein 150) | -0.21 | inactive |
| RNF150 (ring finger protein 150) | 0.07 | inactive |
| RNF150 (ring finger protein 150) | 0.25 | inactive |
| ANTKMT (adenine nucleotide translocase lysine methyltransferase) | 1.73 | inactive |
| ANTKMT (adenine nucleotide translocase lysine methyltransferase) | 4.65 | active |
| ANTKMT (adenine nucleotide translocase lysine methyltransferase) | 3.25 | active |
| ANTKMT (adenine nucleotide translocase lysine methyltransferase) | 1.55 | inactive |
| PTGDS (prostaglandin D2 synthase) | 0.16 | inactive |
| PTGDS (prostaglandin D2 synthase) | 0.17 | inactive |
| PTGDS (prostaglandin D2 synthase) | 0.13 | inactive |
| PTGDS (prostaglandin D2 synthase) | 0.23 | inactive |
| SPO11 (SPO11 initiator of meiotic double strand breaks) | 0.32 | inactive |
| SPO11 (SPO11 initiator of meiotic double strand breaks) | 1.76 | inactive |
| SPO11 (SPO11 initiator of meiotic double strand breaks) | 1.45 | inactive |
| MGAT4B | -1.2 | inactive |
| MGAT4B | -0.58 | inactive |
| MGAT4B | -1.35 | inactive |
| MGAT4B | -1.26 | inactive |
| KRTAP4-12 (keratin associated protein 4-12) | -0.45 | inactive |
| KRTAP4-12 (keratin associated protein 4-12) | -0.01 | inactive |
| KRTAP4-12 (keratin associated protein 4-12) | 0.53 | inactive |
| KRTAP4-12 (keratin associated protein 4-12) | 0.62 | inactive |
| APH1A (aph-1A gamma-secretase subunit) | -0.45 | inactive |
| APH1A (aph-1A gamma-secretase subunit) | -1.24 | inactive |
| APH1A (aph-1A gamma-secretase subunit) | -1.79 | active |
| APH1A (aph-1A gamma-secretase subunit) | -1.36 | inactive |
| PCED1B (PC-esterase domain containing 1B) | 2.31 | inactive |
| PCED1B (PC-esterase domain containing 1B) | 0.93 | inactive |
| PCED1B (PC-esterase domain containing 1B) | 0.65 | inactive |
| PCED1B (PC-esterase domain containing 1B) | 2 | inactive |
| ZNF112 (zinc finger protein 112) | -0.25 | inactive |
| ZNF112 (zinc finger protein 112) | 0.19 | inactive |
| ZNF112 (zinc finger protein 112) | -0.11 | inactive |
| ZNF112 (zinc finger protein 112) | -0.62 | inactive |
| RELA (RELA proto-oncogene, NF-kB subunit) | -0.98 | inactive |
| RELA (RELA proto-oncogene, NF-kB subunit) | -0.96 | inactive |
| RELA (RELA proto-oncogene, NF-kB subunit) | -1.17 | inactive |
| RELA (RELA proto-oncogene, NF-kB subunit) | -0.18 | inactive |
| NXT2 (nuclear transport factor 2 like export factor 2) | 0.13 | inactive |
| NXT2 (nuclear transport factor 2 like export factor 2) | 1.26 | inactive |
| NXT2 (nuclear transport factor 2 like export factor 2) | -0.24 | inactive |
| NXT2 (nuclear transport factor 2 like export factor 2) | -1.06 | inactive |
| DDX3X (DEAD-box helicase 3 X-linked) | -1.36 | inactive |
| DDX3X (DEAD-box helicase 3 X-linked) | -1.45 | inactive |
| DDX3X (DEAD-box helicase 3 X-linked) | -0.72 | inactive |
| BOLA2B (bolA family member 2B) | -0.13 | inactive |
| BOLA2B (bolA family member 2B) | -0.21 | inactive |
| BOLA2B (bolA family member 2B) | -0.55 | inactive |
| BOLA2B (bolA family member 2B) | 2.25 | inactive |
